From the supplement of paper PMC8728848
The other results are listed elsewhere or left out.

Assays:
Experiment in all cases: glycan array binding signal (z-score within array); higher = stronger binding
Conditions in all cases: glycan notation: IUPAC condensed, linker removed
Fuc(a1-2)Gal = target: Fuc(a1-2)Gal
How it was run: (§1)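 The Consortium for Functional Glycomics database supplied 3228 glycan arrays, of which those lacking an available protein sequence were dropped. The binding signal, a within-array Z-score, was averaged across arrays of the same protein sequence and across linkers. Negative scores can be read as non-binding.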

Fuc(a1-2)Gal(b1-3)GalNAc = target: Fuc(a1-2)Gal(b1-3)GalNAc
How it was run: as §1

[1] = target: Fuc(a1-2)Gal(b1-3)GalNAc(b1-3)Gal
How it was run: as §1

[2] = target: Fuc(a1-2)Gal(b1-3)GalNAc(b1-3)Gal(a1-4)Gal(b1-4)Glc
How it was run: as §1

[3] = target: Fuc(a1-2)Gal(b1-3)GalNAc(b1-4)[Neu5Ac(a2-3)]Gal(b1-4)Glc
How it was run: as §1

Fuc(a1-2)Gal(b1-3)GlcNAc = target: Fuc(a1-2)Gal(b1-3)GlcNAc
How it was run: as §1

[4] = target: Fuc(a1-2)Gal(b1-3)GlcNAc(b1-3)Gal(b1-4)Glc
How it was run: as §1

[5] = target: Fuc(a1-2)Gal(b1-3)[Fuc(a1-4)]GlcNAc
How it was run: as §1

Fuc(a1-2)Gal(b1-4)Glc = target: Fuc(a1-2)Gal(b1-4)Glc
How it was run: as §1

Fuc(a1-2)Gal(b1-4)Glc6S = target: Fuc(a1-2)Gal(b1-4)Glc6S
How it was run: as §1

Fuc(a1-2)Gal(b1-4)GlcNAc = target: Fuc(a1-2)Gal(b1-4)GlcNAc
How it was run: as §1

[6] = target: Fuc(a1-2)Gal(b1-4)GlcNAc(b1-3)Gal(b1-4)GlcNAc
How it was run: as §1

[7] = target: Fuc(a1-2)Gal(b1-4)GlcNAc(b1-3)Gal(b1-4)GlcNAc(b1-3)Gal(b1-4)GlcNAc
How it was run: as §1

[8] = target: Fuc(a1-2)Gal(b1-4)GlcNAc6S
How it was run: as §1

[9] = target: Fuc(a1-2)Gal(b1-4)[Fuc(a1-3)]GlcNAc
How it was run: as §1

[10] = target: Fuc(a1-2)Gal(b1-4)[Fuc(a1-3)]GlcNAc(b1-3)Gal(b1-4)[Fuc(a1-3)]GlcNAc
How it was run: as §1

[11] = target: Fuc(a1-2)Gal(b1-4)[Fuc(a1-3)]GlcNAc(b1-3)Gal(b1-4)[Fuc(a1-3)]GlcNAc(b1-3)Gal(b1-4)[Fuc(a1-3)]GlcNAc
How it was run: as §1

Fuc(a1-2)Gal6S(b1-4)Glc = target: Fuc(a1-2)Gal6S(b1-4)Glc
How it was run: as §1

[12] = target: Fuc(a1-2)Gal6S(b1-4)Glc6S
How it was run: as §1

[13] = target: Fuc(a1-2)Gal6S(b1-4)GlcNAc
How it was run: as §1

Fuc(a1-2)[Gal(a1-3)]Gal = target: Fuc(a1-2)[Gal(a1-3)]Gal
How it was run: as §1

[14] = target: Fuc(a1-2)[Gal(a1-3)]Gal(b1-3)GlcNAc
How it was run: as §1

[15] = target: Fuc(a1-2)[Gal(a1-3)]Gal(b1-4)Glc
How it was run: as §1

[16] = target: Fuc(a1-2)[Gal(a1-3)]Gal(b1-4)GlcNAc
How it was run: as §1

[17] = target: Fuc(a1-2)[Gal(a1-3)]Gal(b1-4)[Fuc(a1-3)]GlcNAc
How it was run: as §1

[18] = target: Fuc(a1-2)[Gal(a1-4)]Gal(b1-4)GlcNAc
How it was run: as §1

[19] = target: Fuc(a1-2)[GalNAc(a1-3)]Gal
How it was run: as §1

[20] = target: Fuc(a1-2)[GalNAc(a1-3)]Gal(b1-3)GlcNAc
How it was run: as §1

[21] = target: Fuc(a1-2)[GalNAc(a1-3)]Gal(b1-4)Glc
How it was run: as §1

[22] = target: Fuc(a1-2)[GalNAc(a1-3)]Gal(b1-4)GlcNAc
How it was run: as §1

B1: SrpA (Streptococcus sanguis) (protein)
chain: SSKSESTVNSQSASSETNRSSTNNGSTSSSSETARVRKRRATDTTPPTITVPSDIIAYRGEEFEFYFEITDDSGQVKNIELSTFGKPLGLNWLEYSEDNFNVPGNATSDNPLRVRVHGTVPLNEPIPADKNRAQFTRTIRAWDAAGNVSSNITFVIKYRAQTDKYNPADPTITYVDRLSSLSPSEKNAVEAAVRAANPQIPAAARITVSANGTVTITYPDSSTDTITANRVVKDLASSRSALT
glycan array binding signal (z-score) (Fuc(a1-2)Gal): 0.466 | glycan array binding signal (z-score) (Fuc(a1-2)Gal(b1-3)GalNAc): 0.015 | glycan array binding signal (z-score) [1]: 0.055 | glycan array binding signal (z-score) [2]: -0.361 | glycan array binding signal (z-score) [3]: -0.359 | glycan array binding signal (z-score) (Fuc(a1-2)Gal(b1-3)GlcNAc): -0.658 | glycan array binding signal (z-score) [4]: -0.548 | glycan array binding signal (z-score) [5]: -0.701 | glycan array binding signal (z-score) (Fuc(a1-2)Gal(b1-4)Glc): -0.111 | glycan array binding signal (z-score) (Fuc(a1-2)Gal(b1-4)Glc6S): -0.719 | glycan array binding signal (z-score) (Fuc(a1-2)Gal(b1-4)GlcNAc): 0.235 | glycan array binding signal (z-score) [6]: -0.109 | glycan array binding signal (z-score) [7]: 2.25 | glycan array binding signal (z-score) [8]: -0.657 | glycan array binding signal (z-score) [9]: 0.445 | glycan array binding signal (z-score) [10]: -0.422 | glycan array binding signal (z-score) [11]: 0.173 | glycan array binding signal (z-score) (Fuc(a1-2)Gal6S(b1-4)Glc): -0.532 | glycan array binding signal (z-score) [12]: -0.486 | glycan array binding signal (z-score) [13]: 0.042 | glycan array binding signal (z-score) (Fuc(a1-2)[Gal(a1-3)]Gal): 0.762 | glycan array binding signal (z-score) [14]: -0.652 | glycan array binding signal (z-score) [15]: -0.758 | glycan array binding signal (z-score) [16]: 0.089 | glycan array binding signal (z-score) [17]: -0.042 | glycan array binding signal (z-score) [18]: -0.029 | glycan array binding signal (z-score) [19]: 1.11 | glycan array binding signal (z-score) [20]: 0.203 | glycan array binding signal (z-score) [21]: -0.436 | glycan array binding signal (z-score) [22]: -0.075
